PubChem BioAssay AID493014 (National Center for Advancing Translational Sciences (NCATS), 2011)
This is one part of the list. Further columns of the screen follow, without active or inactive calls. Most of these compounds were active or inconclusive in the main read-out, so they are no random draw. Potencies come from curve fits of mixed quality, noted in brackets.

Assay: qHTS Assay to Find Inhibitors of Chronic Active B-Cell Receptor Signaling
Settings: ABC-DLBCL IkBa-CBG/CBR reporter, luminescence ratio (green luciferase fused to IkBa over red control in TMD8 lymphoma cells), 4 h
Method in brief: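 Doxycycline induced both beetle luciferases in TMD8 lymphoma cells; IKK-driven degradation limits the IkappaBalpha-fused green signal, while red luminescence normalises for cell number and nonspecific effects. Compounds tested up to 46 uM, 4 hrs.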

[1] = measured here: CBR red luminescence, cell number
[2] = measured here: IkBa-CBG green luminescence

SMILES | AC50 [1] | AC50 [2]
CCCCn1c(NC(=S)Nc2ccccc2)nc2ccccc21 | 4.61 µM [rising, full curve] | 
Cc1oc(-c2cccc3ccccc23)nc1CN1CCN(c2ncnc3ccccc23)CC1 | 22.4 µM [falling, single point] | 
Cc1nc2nc(Cc3ccccc3)[nH]n2c(=O)c1Cc1ccccc1 | 3.26 µM [rising, partial curve, poor fit] | 
COc1ccc(C2=NN(c3ccc(C=O)cc3)C(c3ccccc3)C2)cc1 (stereo not given) | 1.12 µM [rising, partial curve, poor fit] | 
CN(C)CCN(Cc1ccco1)C(=O)c1oc2ccccc2c1NC(=O)COc1ccccc1 | 20 µM [falling, single point] | 
Cc1ccc(S(=O)(=O)NCCN2CCOCC2)cc1 | 7.31 µM [rising, single point] | 
COc1ccc(NC(C)C(=O)N/N=C/c2ccccc2OCc2cccc(Br)c2)cc1 (stereo not given) | 3.26 µM [rising, partial curve, poor fit] | 
COc1cccc(/C=N/NC(=O)c2cc3c(OC)cccc3[nH]2)c1O | 0.366 µM [falling, full curve] | 
Fc1ccc(CO/N=C2\CCCc3nonc32)cc1 | 5.01 µM [rising, partial curve, poor fit] | 
Cc1ccc(C(=O)N2C(CC(=O)Nc3ccc(Cl)cc3)C(=O)NC3CCCCC32)cc1 (stereo not given) |  | 17.8 µM [falling, partial curve, poor fit]
Oc1cccc2ccc(/C=C/c3ccccc3Cl)nc12 | 0.316 µM [rising, full curve, poor fit] | 
CCCSc1nsc(NC(=O)Nc2ccc(F)cc2F)n1 | 3.98 µM [falling, full curve] | 
Cc1ccc(N(C(=O)c2ccc(Br)o2)C2C=CS(=O)(=O)C2)cc1 (stereo not given) | 9.2 µM [falling, single point] | 
CC(=O)Nc1ccc(Nc2nnc(-c3ccc(C)c(S(=O)(=O)NCC4CCCO4)c3)c3ccccc23)cc1 (stereo not given) | 14.1 µM [falling, partial curve] | 
Cc1cc(C2C(C#N)=C(N)Oc3n[nH]c(C)c32)c(C)s1 (stereo not given) | 1 µM [falling, full curve, poor fit] | 
Cc1ccc(C)c2c1cc(C)c1nnc(SCc3ccccn3)n12 | 2.06 µM [rising, full curve, poor fit] | 
COc1cccc2cc(C(=O)NCc3ccccn3)c(=O)oc12 | 1.84 µM [falling, partial curve, poor fit] | 
Clc1ccc(CN=C(Nc2ccccc2)NC2CCCCC2)cc1 | 11.2 µM [falling, partial curve, poor fit] | 
c1ccc2nc3[nH]cnc3nc2c1 | 3.16 µM [falling, full curve] | 
COc1ccc(C(=O)COC(=O)c2cncc(Br)c2)cc1 | 23.1 µM [falling, partial curve, poor fit] | 
CCOc1ccccc1N(CC(=O)N1CCOCC1)S(=O)(=O)c1ccc(SC)cc1 | 29.1 µM [rising, single point] | 
O=C(N/N=C/c1cccc(O)c1)c1cc(-c2ccc3c(c2)OCO3)n[nH]1 | 8.2 µM [falling, partial curve] | 
Cc1cc(-c2nnc3n2CCCCC3)c(C)n1-c1ccccc1 | 2 µM [rising, partial curve, poor fit] | 
CCCCNc1nc2ccccc2[nH]1 | 8.2 µM [rising, partial curve, poor fit] | 

Part of the list above, as tab-separated lines.
SMILES	AC50 [1]	AC50 [2]
CCCCn1c(NC(=S)Nc2ccccc2)nc2ccccc21	4.61 µM [rising, full curve]	
Cc1oc(-c2cccc3ccccc23)nc1CN1CCN(c2ncnc3ccccc23)CC1	22.4 µM [falling, single point]	
Cc1nc2nc(Cc3ccccc3)[nH]n2c(=O)c1Cc1ccccc1	3.26 µM [rising, partial curve, poor fit]	
COc1ccc(C2=NN(c3ccc(C=O)cc3)C(c3ccccc3)C2)cc1 (stereo not given)	1.12 µM [rising, partial curve, poor fit]	
CN(C)CCN(Cc1ccco1)C(=O)c1oc2ccccc2c1NC(=O)COc1ccccc1	20 µM [falling, single point]	
COc1ccc(NC(C)C(=O)N/N=C/c2ccccc2OCc2cccc(Br)c2)cc1 (stereo not given)	3.26 µM [rising, partial curve, poor fit]	
COc1cccc(/C=N/NC(=O)c2cc3c(OC)cccc3[nH]2)c1O	0.366 µM [falling, full curve]	
Fc1ccc(CO/N=C2\CCCc3nonc32)cc1	5.01 µM [rising, partial curve, poor fit]	
Cc1ccc(C(=O)N2C(CC(=O)Nc3ccc(Cl)cc3)C(=O)NC3CCCCC32)cc1 (stereo not given)		17.8 µM [falling, partial curve, poor fit]
Oc1cccc2ccc(/C=C/c3ccccc3Cl)nc12	0.316 µM [rising, full curve, poor fit]	
CCCSc1nsc(NC(=O)Nc2ccc(F)cc2F)n1	3.98 µM [falling, full curve]	
Cc1ccc(N(C(=O)c2ccc(Br)o2)C2C=CS(=O)(=O)C2)cc1 (stereo not given)	9.2 µM [falling, single point]	
Cc1ccc(C)c2c1cc(C)c1nnc(SCc3ccccn3)n12	2.06 µM [rising, full curve, poor fit]	
COc1cccc2cc(C(=O)NCc3ccccn3)c(=O)oc12	1.84 µM [falling, partial curve, poor fit]	
Clc1ccc(CN=C(Nc2ccccc2)NC2CCCCC2)cc1	11.2 µM [falling, partial curve, poor fit]	
c1ccc2nc3[nH]cnc3nc2c1	3.16 µM [falling, full curve]	
COc1ccc(C(=O)COC(=O)c2cncc(Br)c2)cc1	23.1 µM [falling, partial curve, poor fit]	
CCOc1ccccc1N(CC(=O)N1CCOCC1)S(=O)(=O)c1ccc(SC)cc1	29.1 µM [rising, single point]	
O=C(N/N=C/c1cccc(O)c1)c1cc(-c2ccc3c(c2)OCO3)n[nH]1	8.2 µM [falling, partial curve]	
Cc1cc(-c2nnc3n2CCCCC3)c(C)n1-c1ccccc1	2 µM [rising, partial curve, poor fit]	
CCCCNc1nc2ccccc2[nH]1	8.2 µM [rising, partial curve, poor fit]	

The listing continues.

SMILES | AC50 [1] | AC50 [2]
COc1ccc(CNC(=O)c2[nH]c(C)c(C(C)=O)c2C)cc1 | 0.1 µM [rising, full curve, poor fit] | 
CN(C)CC/C=C1\c2ccccc2CSc2ccccc21 | 29.1 µM [falling, single point] | 
CSc1nsc(/C=C/Nc2ccc(F)cc2)c1C#N | 22.4 µM [falling, single point] | 
CCOC(=O)c1cc(-c2ccccc2)n(CCC(=O)Nc2ccc(Cl)c(C(F)(F)F)c2)c1C | 35.5 µM [falling, single point] | 
Cc1ccc(OCCNC(=O)c2ccc3ccccc3n2)cc1 | 11.2 µM [rising, partial curve, poor fit] | 
Cc1ccc(C#N)c(SCc2ccccc2F)n1 | 22.4 µM [rising, partial curve, poor fit] | 28.2 µM [falling, partial curve, poor fit]
CS(=O)(=O)C1=NN2C(=N)/C(=C\c3ccc(OCCOc4ccccc4)cc3)C(=O)N=C2S1 | 2.82 µM [rising, partial curve] | 
Cc1cc(C)n(Cc2ccccc2F)c(=O)c1C#N | 14.6 µM [rising, partial curve, poor fit] | 
C/C(NCCN1CCOCC1)=C(\C#N)C(N)=O | 14.6 µM [rising, partial curve, poor fit] | 
CCOc1ccc(/C=N/NC(=O)c2[nH]c3ccc(C)cc3c2C)cc1 | 20 µM [falling, partial curve, poor fit] | 
O=S(=O)(c1ccc(F)cc1)N1CCCC1 | 25.1 µM [rising, single point] | 
COc1ccccc1C1CC(=O)Nc2cc3c(cc21)OCCO3 (stereo not given) |  | 18.4 µM [falling, partial curve]
CCn1cnc2cc(NCc3cccs3)ccc21 | 15.8 µM [falling, single point] | 
Cc1cccc(NC(=O)C2CCCN(C(=O)Nc3ccccc3)C2)c1C (stereo not given) | 2.91 µM [rising, full curve, poor fit] | 
O=C(Nc1ccc(Cl)cc1)c1cc2nc(-c3ccco3)cc(C(F)(F)F)n2n1 | 23.1 µM [rising, single point] | 
CN(C)c1ccc(C(=S)N2CCCC2)cc1Br | 0.631 µM [rising, full curve, poor fit] | 
O=C1C=C(c2cccs2)CC(c2cccs2)C1n1cnc([N+](=O)[O-])c1 (stereo not given) | 11.2 µM [falling, partial curve, poor fit] | 
Nc1ncnc2c1ncn2[C@@H]1O[C@H](CNCc2ccc(OCC(=O)Nc3ccccn3)cc2)[C@@H](O)[C@H]1O | 23.1 µM [falling, single point] | 
CC1(C)C(=O)Nc2ccccc2N1C(=O)COC(=O)CSc1ccc(Cl)cc1 | 32.6 µM [rising, single point] | 
CCOC(=O)N1CCc2c(sc(NCc3ccc(OC)c(OC)c3OC)c2C(=O)Nc2ccc(OC)cc2OC)C1 | 0.562 µM [rising, full curve, poor fit] | 
COc1ccccc1C(=O)NCCC(=O)N1CCN(C(=O)c2ccco2)CC1 | 0.517 µM [rising, full curve, poor fit] | 
Cc1c(Cl)cccc1-n1c(SCC(=O)NCc2ccccc2Cl)nnc1-c1ccncc1 | 25.1 µM [falling, partial curve, poor fit] | 
O=C(CSc1cccc[n+]1[O-])c1ccc(-c2ccccc2)cc1 | 35.5 µM [falling, single point] | 8.91 µM [falling, partial curve, poor fit]
O=C(CNC(=O)C(c1ccccc1)c1ccccc1)N/N=C/c1ccc(O)cc1O | 11.2 µM [falling, single point] | 

Taken from above:
AC50 [1] with COc1ccc(CNC(=O)c2[nH]c(C)c(C(C)=O)c2C)cc1 reads 0.1 µM [rising, full curve, poor fit]
AC50 [2] with COc1ccccc1C1CC(=O)Nc2cc3c(cc21)OCCO3 (stereo not given) reads 18.4 µM [falling, partial curve]

(further entries)

SMILES | AC50 [1] | AC50 [2]
CC1SCC(=NOCc2c(Cl)cccc2Cl)CS1 (stereo not given) | 0.794 µM [rising, partial curve, poor fit] | 
Cc1nc2ccc(F)cc2cc1C(=O)Nc1ccc(Cl)c(Cl)c1 | 1.46 µM [rising, full curve] | 
CCCOc1ccc(C2C(=O)N(C3CCC(C)CC3)CC(=O)N2CCC2=CCCCC2)cc1OC (stereo not given) | 4.47 µM [falling, partial curve, poor fit] | 
CC(=O)N/N=C(\N)c1nonc1N | 2.24 µM [falling, full curve] | 
CC(C)c1ccc(C2=C(O)c3ccccc3C(=O)C2=O)cc1 | 13 µM [falling, partial curve, poor fit] | 
CC(C)(Oc1ccc(Cl)cc1)C(=O)NCc1n[nH]c(=O)c2ccccc12 | 18.4 µM [falling, single point] | 
Cc1c(N2CCCC2)cc2c(c1NC(=O)c1ccccc1Cl)C(C)(C)CC2(C)C | 0.1 µM [falling, full curve, poor fit] | 
Cc1nc(C)c(-c2csc(Nc3ccc(S(N)(=O)=O)cc3)n2)s1 | 20 µM [falling, single point] | 
CCOc1ccccc1-n1c(SCC(=O)NCc2ccco2)nnc1-c1ccncc1 | 29.1 µM [falling, single point] | 
Cc1nc(-c2ccccc2)sc1-c1nnc(C2CC2)o1 | 5.01 µM [rising, single point] | 
O=C(c1ccccc1)c1cc(Cl)ccc1N1C(=O)C=CC1=O | 35.5 µM [falling, single point] | 35.5 µM [rising, partial curve, poor fit]
CCOc1ccc(NC(=S)N(CCCN2CCCC2)Cc2cccn2Cc2ccc(Cl)cc2)cc1 | 10 µM [falling, partial curve, poor fit] | 
CCN(CC)S(=O)(=O)c1ccc(N2CCOCC2)c(NC(=O)c2ccc(N3CCCC3=O)cc2)c1 | 4.11 µM [rising, full curve, poor fit] | 
Cc1n[nH]c(=O)nc1NCCc1ccccc1 | 2.59 µM [rising, partial curve, poor fit] | 
O=C(CCC(=O)Nc1nnc(C2CCCCC2)s1)NCc1ccc(F)cc1 | 17.8 µM [rising, single point] | 
COc1ccccc1C(=O)Nc1nnc(SCC(=O)Nc2ccc3c(c2)oc2ccccc23)s1 | 0.164 µM [falling, full curve, poor fit] | 
Cc1c(-c2ccc(O)cc2)nc2nc(-c3ccccc3)c(-c3ccccc3)nn12 | 11.2 µM [falling, partial curve, poor fit] | 
CCOC(=O)c1c(C)oc2c1c1c(c3ccccc32)OCN(Cc2cccnc2)C1 | 0.82 µM [falling, full curve, poor fit] | 
CCOC(=O)c1ccc(NC(=O)CSc2nc3c(c(=O)n2C)SC(C)C3)cc1 (stereo not given) | 11.6 µM [falling, partial curve, poor fit] | 
O=C1NC(c2ccccn2)Nc2sc3c(c21)CCC3 (stereo not given) | 35.5 µM [rising, single point] | 
Nc1ccc(Br)cc1Br | 3.16 µM [rising, partial curve, poor fit] | 
Cc1ccc(S(=O)(=O)CCC(=O)OCC(=O)N(C)CC(=O)Nc2ccc(F)cc2)cc1 | 11.6 µM [falling, partial curve, poor fit] | 
COc1cc(/C=N/n2c(-c3ccc4c(c3)NC(=O)CO4)csc2=Nc2cccc(C)c2)ccc1O | 23.1 µM [falling, partial curve, poor fit] | 
COc1ccc2c(Cl)c(C(=O)NCC3CCCO3)sc2c1Cl (stereo not given) | 0.164 µM [rising, full curve] | 
